Like-named read-outs stand apart in the source and are kept apart here. Some results were stated once for a whole list of compounds, not compound by compound.
Biological target: T1, V1aR (Homo sapiens, UniProt P37288)
T1 construct: expressed in transfected cells; host or cells: HEK 293T (printed for the general protocol, whose plasmid sentence names only the V2 receptor)
Assay: TR-FRET (HTRF) saturation binding assay on SNAP-tag labeled receptor in cells
Settings: saturation with fluorescent ligand, mean ± SEM of three independent experiments in triplicate, read-out: Binding, HTRF (Kd, nM) V1a
Method: These assays were performed as described in Zwier et al (Journal of Biomolecular Screening 2010, 15, 1248-1259). Briefly, HEK 293T cells were cultivated in DMEM medium supplemented with 10% foetal calf serum (FCS) and 1% penicillin/streptomycin antibiotics. Confluent cells were dissociated and electroporated with plasmid DNA coding for the V2 receptor fused to the SNAP-tag suicide enzyme. Transfected cells were then plated in black 96-well plates previously coated with poly-ornithine (diluted at 0.1 mg.mL^-1 in sterile water, incubated 30 min at 37°C, washed with sterile PBS). Plates were incubated in supplemented DMEM medium for 48h à 37°C, 95% O2 and 5% CO2. […] After overnight incubation at 4 °C (to prevent any internalization phenomenon), plates were read in an HTRF®-compatible multi-well plate reader with a classic HTRF® protocol (excitation at 340 nm, donor emission measured at 620 nm and acceptor emission at 665 nm, 50 µs delay, 500 µs integration).
Fluorescent compounds 21 to 24 were involved in the development of a TR-FRET based assay for both V1aR and OTR. Such technique usually offers a higher signal-to-noise ratio than classic FRET because of the long-lasting fluorescence of the lanthanide cryptate. […]

Amino acid sequences for entries named in this document (tags omitted).
UniProt P37288, whole entry: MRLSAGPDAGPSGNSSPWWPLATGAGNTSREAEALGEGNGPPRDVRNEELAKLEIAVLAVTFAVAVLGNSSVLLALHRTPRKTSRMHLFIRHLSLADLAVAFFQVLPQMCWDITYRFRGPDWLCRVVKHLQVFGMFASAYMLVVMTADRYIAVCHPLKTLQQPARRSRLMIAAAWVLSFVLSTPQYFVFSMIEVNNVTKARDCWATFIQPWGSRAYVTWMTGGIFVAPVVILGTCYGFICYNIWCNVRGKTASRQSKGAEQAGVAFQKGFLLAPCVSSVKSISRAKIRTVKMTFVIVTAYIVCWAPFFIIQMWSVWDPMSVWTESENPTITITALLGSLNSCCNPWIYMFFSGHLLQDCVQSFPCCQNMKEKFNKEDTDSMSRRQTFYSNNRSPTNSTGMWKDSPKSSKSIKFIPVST

Structure (SMILES)	Kd (listed as compound 22) [nM]	Kd (listed as compound 21) [nM]
CCN1C(=CC=CC=CC2=[N+](CC)c3ccc(S(=O)(=O)[O-])cc3C2(C)C)C(C)(CCCC(=O)NCCOCCOCCOCCN2CCN(CCCCCCOc3cccc(C)c3-n3c(C)nnc3-c3ccc(-c4ccccc4)cc3)CC2)c2cc(S(=O)(=O)O)ccc21 (centres unmarked) [Compound 22]	4 to 10	
CCN1C(=CC=CC=CC2=[N+](CC)c3ccc(S(=O)(=O)[O-])cc3C2(C)C)C(C)(CCCC(=O)NCCOCCN2CCN(CCCCCCOc3cccc(C)c3-n3c(C)nnc3-c3ccc(-c4ccccc4)cc3)CC2)c2cc(S(=O)(=O)O)ccc21 (centres unmarked) [Compound 21]		4 to 10

Source: EP2716638A1, “Labeled ligands of the oxytocyn receptor” (Université de Strasbourg, priority 2012, dated 2014)
